The assay concerns the target T1, delta‐catenin (CTNND1) (human (endogenous in HDFα)) (UniProt O60716).
T1 sequence: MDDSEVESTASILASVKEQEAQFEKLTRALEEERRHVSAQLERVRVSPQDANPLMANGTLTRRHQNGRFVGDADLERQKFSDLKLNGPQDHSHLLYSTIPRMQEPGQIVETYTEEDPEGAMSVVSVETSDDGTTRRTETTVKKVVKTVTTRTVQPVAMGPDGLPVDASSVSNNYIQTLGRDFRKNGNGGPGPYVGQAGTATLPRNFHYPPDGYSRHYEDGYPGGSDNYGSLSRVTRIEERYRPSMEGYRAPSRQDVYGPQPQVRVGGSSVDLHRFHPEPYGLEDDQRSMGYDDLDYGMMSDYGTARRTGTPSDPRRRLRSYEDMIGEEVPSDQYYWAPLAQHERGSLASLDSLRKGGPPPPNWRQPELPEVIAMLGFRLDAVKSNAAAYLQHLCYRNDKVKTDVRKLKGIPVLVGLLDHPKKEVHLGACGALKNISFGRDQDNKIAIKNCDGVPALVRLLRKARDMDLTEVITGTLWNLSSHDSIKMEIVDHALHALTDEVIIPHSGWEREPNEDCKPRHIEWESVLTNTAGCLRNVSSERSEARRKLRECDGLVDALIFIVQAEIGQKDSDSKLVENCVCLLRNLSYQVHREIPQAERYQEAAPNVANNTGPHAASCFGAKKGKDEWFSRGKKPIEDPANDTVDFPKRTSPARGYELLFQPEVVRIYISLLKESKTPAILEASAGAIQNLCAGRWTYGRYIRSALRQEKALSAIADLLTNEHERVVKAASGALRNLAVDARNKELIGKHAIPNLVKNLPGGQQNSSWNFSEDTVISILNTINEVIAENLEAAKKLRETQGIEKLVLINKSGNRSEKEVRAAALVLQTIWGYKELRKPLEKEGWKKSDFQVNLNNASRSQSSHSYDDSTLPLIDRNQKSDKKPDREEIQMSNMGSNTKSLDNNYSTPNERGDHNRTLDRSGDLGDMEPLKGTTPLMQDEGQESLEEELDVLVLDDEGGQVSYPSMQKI
The assay can be described thus: affinity purification with mass spectrometry; immunoprecipitation with anti‐CTNND1 coupled with proteomics analysis in 7Ap‐treated HDFα cells.

Amino acid sequences for entries named in this document (tags omitted).
UniProt Q00534: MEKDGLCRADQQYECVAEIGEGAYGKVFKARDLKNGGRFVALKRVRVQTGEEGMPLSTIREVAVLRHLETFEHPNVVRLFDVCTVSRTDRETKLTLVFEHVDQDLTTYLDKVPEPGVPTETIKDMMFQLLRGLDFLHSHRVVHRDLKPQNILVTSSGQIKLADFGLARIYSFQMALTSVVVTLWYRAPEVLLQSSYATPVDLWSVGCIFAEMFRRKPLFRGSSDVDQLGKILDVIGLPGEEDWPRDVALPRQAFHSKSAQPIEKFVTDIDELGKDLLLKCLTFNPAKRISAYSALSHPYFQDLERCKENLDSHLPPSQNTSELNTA

These are yes or no findings as the source states them, for the method shown. Binding seen in cells or lysates may run through a third protein. A yes stands for co-enrichment or nearness to the bait. Other partners may have been found.

“cyclin‐dependent kinase 6 (CDK6) (from UniProt Q00534 1-326) (enzyme)”: the binding entry was “binds”.

The record behind these values is article PMC11600263.
